# Results as given in the supplement of paper PMC8728848.
# This is one part of the list.
# B1: CcfD (Bacteroides vulgatus), A6KYX8 (protein)
# chain: MKYKNYFKSIIYLALGAFTLGSCEDFLDRQEDEKLTFDKIWESRNTTQQYWLNAMSFLPNENGSLQGDTEPYLGASDECTIAYDRQYRWINFGTWNPSQVPYYKMDHYYKGIRECNIFLQNVYKCSDPLVTKDQLDEWYWQTRFARAYYYFLMMRDYGPVFLLGDDLLDFTASTEELYRPRNTWDQCVNYVVSEMTQCAESGVVLQQSDLPAAKWGLATVGTCHAVISRLLLYSARPLFNGNKLYSTVKNPDAPDFPELSGVKLFPELDNTKWQKAAEAAKKLIDNPCYELYRAGNDNPYEDYYGVTHETWNKELIWTDRYNGLFSWGVGTVPTGVAGTAYGAVGPTQALVDAYAMNTGWYPITGYEADGTPIVEPLSGYELASELEKSSWIYPSGGWSNKADFEIEAPNMYKDREPRFYVTVFFGGNQWLHGNSATSISFAKGGNGNKSHDYPKSGYLCNRFYDHKLNSSEGQWGNITFPVFRLGEIYLNFIEAVLECKKNGVALDPSYEALAMEKWADLRKRAGLDPITSIYGQVSTEELIQLCRKERQIELAFERHRYFDTRTWMIATQTDNGKMYGMNTSCPLDAGMKGTETPDGFWERTAFETRVFQNKHYLYPFSQRELDRNKLLTQNYGW
# Tests used:
# Assay in all cases: glycan array binding signal (z-score within array); higher = stronger binding
# Conditions in all cases: glycan notation: IUPAC condensed, linker removed
# GalNAc(b1-4)GlcNAc = molecular target: GalNAc(b1-4)GlcNAc
# Outline: (§1)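 Glycan array data came from 3228 arrays in the Consortium for Functional Glycomics database, and only arrays with an available protein sequence were kept. Glycan names were put into IUPAC-condensed notation, and columns mapping to the same glycan were averaged. The binding signal is a within-array Z-score, averaged across arrays of one protein sequence run at different concentrations or buffers and across linkers. A negative Z-score can be read as non-binding.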
# [1] = molecular target: GalNAc(b1-4)GlcNAc(b1-2)Man
# Outline: as §1
# [2] = molecular target: GalNAc(b1-4)GlcNAc(b1-2)Man(a1-3)[GalNAc(b1-4)GlcNAc(b1-2)Man(a1-6)]Man(b1-4)GlcNAc(b1-4)GlcNAc
# Outline: as §1
# [3] = molecular target: GalNAc(b1-4)GlcNAc(b1-3)GalNAc(b1-4)GlcNAc
# Outline: as §1
# GalNAc(b1-4)GlcNAc6S = molecular target: GalNAc(b1-4)GlcNAc6S
# Outline: as §1
# GalNAc(b1-6)GalNAc = molecular target: GalNAc(b1-6)GalNAc
# Outline: as §1
# GalNAc3S(b1-4)GlcNAc = molecular target: GalNAc3S(b1-4)GlcNAc
# Outline: as §1
# GalNAc3S(b1-4)GlcNAc3S = molecular target: GalNAc3S(b1-4)GlcNAc3S
# Outline: as §1
# [4] = molecular target: GalNAc3S(b1-4)[Fuc(a1-3)]GlcNAc
# Outline: as §1
# GalNAc4S6S(b1-4)GlcNAc = molecular target: GalNAc4S6S(b1-4)GlcNAc
# Outline: as §1
# GalNAc6S(b1-4)GlcNAc = molecular target: GalNAc6S(b1-4)GlcNAc
# Outline: as §1
# Glc(a1-4)Glc = molecular target: Glc(a1-4)Glc
# Outline: as §1
# [5] = molecular target: Glc(a1-4)Glc(a1-4)Glc(a1-4)Glc
# Outline: as §1
# Glc(a1-6)Glc(a1-6)Glc = molecular target: Glc(a1-6)Glc(a1-6)Glc
# Outline: as §1
# [6] = molecular target: Glc(a1-6)Glc(a1-6)Glc(a1-6)Glc
# Outline: as §1
# Glc(b1-4)Glc = molecular target: Glc(b1-4)Glc
# Outline: as §1
# Glc(b1-6)Glc = molecular target: Glc(b1-6)Glc
# Outline: as §1
# GlcA(b1-3)Gal = molecular target: GlcA(b1-3)Gal
# Outline: as §1
# GlcA(b1-3)GlcNAc = molecular target: GlcA(b1-3)GlcNAc
# Outline: as §1
# GlcA(b1-6)Gal = molecular target: GlcA(b1-6)Gal
# Outline: as §1
# [7] = molecular target: GlcA3S(b1-3)Gal(b1-4)GlcNAc(b1-2)Man
# Outline: as §1
# [8] = molecular target: GlcA3S(b1-3)Gal(b1-4)GlcNAc(b1-3)Gal(b1-4)Glc
# Outline: as §1
# [9] = molecular target: GlcNAc(a1-3)Gal(b1-4)GlcNAc
# Outline: as §1
# [10] = molecular target: GlcNAc(a1-4)Gal(b1-3)GlcNAc
# Outline: as §1
# [11] = molecular target: GlcNAc(a1-4)Gal(b1-4)GalNAc
# Outline: as §1
# [12] = molecular target: GlcNAc(a1-4)Gal(b1-4)GlcNAc
# Outline: as §1
# [13] = molecular target: GlcNAc(a1-4)Gal(b1-4)GlcNAc(b1-3)Gal(b1-4)Glc
# Outline: as §1
# [14] = molecular target: GlcNAc(a1-4)Gal(b1-4)GlcNAc(b1-3)Gal(b1-4)GlcNAc
# Outline: as §1
# [15] = molecular target: GlcNAc(a1-4)Gal(b1-4)GlcNAc(b1-3)Gal(b1-4)GlcNAc(b1-3)Gal(b1-4)GlcNAc
# Outline: as §1
# [16] = molecular target: GlcNAc(a1-4)Gal(b1-4)GlcNAc(b1-3)Gal(b1-4)[Fuc(a1-3)]GlcNAc(b1-3)Gal(b1-4)[Fuc(a1-3)]GlcNAc
# Outline: as §1
binder,measurement,setting,value
B1,glycan array binding signal (z-score),GalNAc(b1-4)GlcNAc,-0.091
same,glycan array binding signal (z-score),[1],-0.896
same,glycan array binding signal (z-score),[2],-0.683
same,glycan array binding signal (z-score),[3],-0.099
same,glycan array binding signal (z-score),GalNAc(b1-4)GlcNAc6S,-0.581
same,glycan array binding signal (z-score),GalNAc(b1-6)GalNAc,0.521
same,glycan array binding signal (z-score),GalNAc3S(b1-4)GlcNAc,-0.104
same,glycan array binding signal (z-score),GalNAc3S(b1-4)GlcNAc3S,-0.21
same,glycan array binding signal (z-score),[4],-0.18
same,glycan array binding signal (z-score),GalNAc4S6S(b1-4)GlcNAc,0.948
same,glycan array binding signal (z-score),GalNAc6S(b1-4)GlcNAc,-0.282
same,glycan array binding signal (z-score),Glc(a1-4)Glc,0.087
same,glycan array binding signal (z-score),[5],1.25
same,glycan array binding signal (z-score),Glc(a1-6)Glc(a1-6)Glc,-0.571
same,glycan array binding signal (z-score),[6],-0.363
same,glycan array binding signal (z-score),Glc(b1-4)Glc,0.404
same,glycan array binding signal (z-score),Glc(b1-6)Glc,-0.139
same,glycan array binding signal (z-score),GlcA(b1-3)Gal,-0.835
same,glycan array binding signal (z-score),GlcA(b1-3)GlcNAc,0.374
same,glycan array binding signal (z-score),GlcA(b1-6)Gal,-0.708
same,glycan array binding signal (z-score),[7],-0.404
same,glycan array binding signal (z-score),[8],-0.317
same,glycan array binding signal (z-score),[9],-0.236
same,glycan array binding signal (z-score),[10],1.04
same,glycan array binding signal (z-score),[11],0.669
same,glycan array binding signal (z-score),[12],-0.622
same,glycan array binding signal (z-score),[13],-0.724
same,glycan array binding signal (z-score),[14],-0.114
same,glycan array binding signal (z-score),[15],-0.581
same,glycan array binding signal (z-score),[16],-0.531

# Pulled one by one from above (two):
binder,measurement,setting,value
B1,glycan array binding signal (z-score),GalNAc4S6S(b1-4)GlcNAc,0.948
same,glycan array binding signal (z-score),GalNAc3S(b1-4)GlcNAc3S,-0.21
